Reference: the supplement of paper PMC10849652
The other results are listed elsewhere or left out.

The chains behind the UniProt entries cited, without tags or fusion partners. Where a name states a change or a piece, a line headed by the entry shows the natural chain unless it says otherwise.
UniProt Q13422: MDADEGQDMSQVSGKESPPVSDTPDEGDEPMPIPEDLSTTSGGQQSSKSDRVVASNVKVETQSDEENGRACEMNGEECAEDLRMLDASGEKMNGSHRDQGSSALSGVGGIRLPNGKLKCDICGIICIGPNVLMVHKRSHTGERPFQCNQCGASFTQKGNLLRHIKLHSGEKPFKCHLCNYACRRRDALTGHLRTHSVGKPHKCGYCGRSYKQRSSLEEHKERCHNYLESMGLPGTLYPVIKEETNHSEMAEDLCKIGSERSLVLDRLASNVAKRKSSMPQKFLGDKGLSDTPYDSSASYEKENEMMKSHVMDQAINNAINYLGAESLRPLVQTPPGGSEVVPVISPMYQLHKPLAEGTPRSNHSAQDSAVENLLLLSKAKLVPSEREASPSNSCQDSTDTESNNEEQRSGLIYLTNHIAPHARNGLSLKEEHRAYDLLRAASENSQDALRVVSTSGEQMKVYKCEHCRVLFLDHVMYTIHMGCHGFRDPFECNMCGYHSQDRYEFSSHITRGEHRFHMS
UniProt P53990, whole entry, looked up: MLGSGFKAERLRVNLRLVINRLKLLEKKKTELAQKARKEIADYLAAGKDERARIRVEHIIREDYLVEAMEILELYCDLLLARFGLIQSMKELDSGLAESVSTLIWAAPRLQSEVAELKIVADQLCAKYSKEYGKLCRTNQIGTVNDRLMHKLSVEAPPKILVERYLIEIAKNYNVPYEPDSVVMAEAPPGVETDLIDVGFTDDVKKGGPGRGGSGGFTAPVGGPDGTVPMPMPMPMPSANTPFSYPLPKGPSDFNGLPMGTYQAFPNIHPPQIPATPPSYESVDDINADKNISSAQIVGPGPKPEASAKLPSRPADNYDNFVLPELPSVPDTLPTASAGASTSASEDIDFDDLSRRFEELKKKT
UniProt P15260: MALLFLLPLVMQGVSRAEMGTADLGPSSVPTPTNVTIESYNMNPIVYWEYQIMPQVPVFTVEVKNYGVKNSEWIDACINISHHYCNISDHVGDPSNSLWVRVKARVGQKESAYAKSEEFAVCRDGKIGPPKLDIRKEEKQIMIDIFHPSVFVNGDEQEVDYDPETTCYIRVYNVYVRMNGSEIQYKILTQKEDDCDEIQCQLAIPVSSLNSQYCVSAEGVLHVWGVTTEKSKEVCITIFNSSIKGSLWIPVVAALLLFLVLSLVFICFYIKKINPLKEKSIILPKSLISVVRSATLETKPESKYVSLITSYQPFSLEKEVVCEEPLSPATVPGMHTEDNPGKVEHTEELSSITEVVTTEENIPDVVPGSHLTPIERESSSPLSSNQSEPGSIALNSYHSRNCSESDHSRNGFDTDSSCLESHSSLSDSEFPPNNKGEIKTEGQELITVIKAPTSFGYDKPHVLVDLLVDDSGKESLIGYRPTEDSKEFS
UniProt P50213: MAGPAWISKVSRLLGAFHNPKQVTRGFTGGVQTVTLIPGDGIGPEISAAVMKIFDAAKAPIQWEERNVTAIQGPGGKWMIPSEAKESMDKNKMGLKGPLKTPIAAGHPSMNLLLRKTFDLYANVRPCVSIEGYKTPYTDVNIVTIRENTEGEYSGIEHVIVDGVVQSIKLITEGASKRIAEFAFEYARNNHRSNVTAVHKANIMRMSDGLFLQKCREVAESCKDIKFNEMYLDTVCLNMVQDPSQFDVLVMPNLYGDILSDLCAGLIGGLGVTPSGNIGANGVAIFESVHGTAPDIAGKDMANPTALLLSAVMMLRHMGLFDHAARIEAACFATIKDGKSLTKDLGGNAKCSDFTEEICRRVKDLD
UniProt Q8WZA9: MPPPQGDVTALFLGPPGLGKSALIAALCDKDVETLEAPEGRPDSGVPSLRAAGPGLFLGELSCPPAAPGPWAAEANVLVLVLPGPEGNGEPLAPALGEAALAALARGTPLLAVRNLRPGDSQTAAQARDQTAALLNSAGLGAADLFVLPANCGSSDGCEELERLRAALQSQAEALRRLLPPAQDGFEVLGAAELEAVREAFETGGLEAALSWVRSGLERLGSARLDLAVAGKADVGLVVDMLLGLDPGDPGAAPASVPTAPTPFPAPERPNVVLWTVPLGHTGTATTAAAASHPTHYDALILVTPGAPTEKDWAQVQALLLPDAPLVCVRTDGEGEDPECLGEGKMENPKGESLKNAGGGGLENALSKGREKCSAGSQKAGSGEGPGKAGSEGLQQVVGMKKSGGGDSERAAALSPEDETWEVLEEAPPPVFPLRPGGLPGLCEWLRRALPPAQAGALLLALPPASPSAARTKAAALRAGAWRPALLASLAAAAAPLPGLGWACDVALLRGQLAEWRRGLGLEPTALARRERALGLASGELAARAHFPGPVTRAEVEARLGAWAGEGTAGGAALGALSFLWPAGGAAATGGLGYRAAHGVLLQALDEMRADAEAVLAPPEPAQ
UniProt P11717, whole entry, looked up: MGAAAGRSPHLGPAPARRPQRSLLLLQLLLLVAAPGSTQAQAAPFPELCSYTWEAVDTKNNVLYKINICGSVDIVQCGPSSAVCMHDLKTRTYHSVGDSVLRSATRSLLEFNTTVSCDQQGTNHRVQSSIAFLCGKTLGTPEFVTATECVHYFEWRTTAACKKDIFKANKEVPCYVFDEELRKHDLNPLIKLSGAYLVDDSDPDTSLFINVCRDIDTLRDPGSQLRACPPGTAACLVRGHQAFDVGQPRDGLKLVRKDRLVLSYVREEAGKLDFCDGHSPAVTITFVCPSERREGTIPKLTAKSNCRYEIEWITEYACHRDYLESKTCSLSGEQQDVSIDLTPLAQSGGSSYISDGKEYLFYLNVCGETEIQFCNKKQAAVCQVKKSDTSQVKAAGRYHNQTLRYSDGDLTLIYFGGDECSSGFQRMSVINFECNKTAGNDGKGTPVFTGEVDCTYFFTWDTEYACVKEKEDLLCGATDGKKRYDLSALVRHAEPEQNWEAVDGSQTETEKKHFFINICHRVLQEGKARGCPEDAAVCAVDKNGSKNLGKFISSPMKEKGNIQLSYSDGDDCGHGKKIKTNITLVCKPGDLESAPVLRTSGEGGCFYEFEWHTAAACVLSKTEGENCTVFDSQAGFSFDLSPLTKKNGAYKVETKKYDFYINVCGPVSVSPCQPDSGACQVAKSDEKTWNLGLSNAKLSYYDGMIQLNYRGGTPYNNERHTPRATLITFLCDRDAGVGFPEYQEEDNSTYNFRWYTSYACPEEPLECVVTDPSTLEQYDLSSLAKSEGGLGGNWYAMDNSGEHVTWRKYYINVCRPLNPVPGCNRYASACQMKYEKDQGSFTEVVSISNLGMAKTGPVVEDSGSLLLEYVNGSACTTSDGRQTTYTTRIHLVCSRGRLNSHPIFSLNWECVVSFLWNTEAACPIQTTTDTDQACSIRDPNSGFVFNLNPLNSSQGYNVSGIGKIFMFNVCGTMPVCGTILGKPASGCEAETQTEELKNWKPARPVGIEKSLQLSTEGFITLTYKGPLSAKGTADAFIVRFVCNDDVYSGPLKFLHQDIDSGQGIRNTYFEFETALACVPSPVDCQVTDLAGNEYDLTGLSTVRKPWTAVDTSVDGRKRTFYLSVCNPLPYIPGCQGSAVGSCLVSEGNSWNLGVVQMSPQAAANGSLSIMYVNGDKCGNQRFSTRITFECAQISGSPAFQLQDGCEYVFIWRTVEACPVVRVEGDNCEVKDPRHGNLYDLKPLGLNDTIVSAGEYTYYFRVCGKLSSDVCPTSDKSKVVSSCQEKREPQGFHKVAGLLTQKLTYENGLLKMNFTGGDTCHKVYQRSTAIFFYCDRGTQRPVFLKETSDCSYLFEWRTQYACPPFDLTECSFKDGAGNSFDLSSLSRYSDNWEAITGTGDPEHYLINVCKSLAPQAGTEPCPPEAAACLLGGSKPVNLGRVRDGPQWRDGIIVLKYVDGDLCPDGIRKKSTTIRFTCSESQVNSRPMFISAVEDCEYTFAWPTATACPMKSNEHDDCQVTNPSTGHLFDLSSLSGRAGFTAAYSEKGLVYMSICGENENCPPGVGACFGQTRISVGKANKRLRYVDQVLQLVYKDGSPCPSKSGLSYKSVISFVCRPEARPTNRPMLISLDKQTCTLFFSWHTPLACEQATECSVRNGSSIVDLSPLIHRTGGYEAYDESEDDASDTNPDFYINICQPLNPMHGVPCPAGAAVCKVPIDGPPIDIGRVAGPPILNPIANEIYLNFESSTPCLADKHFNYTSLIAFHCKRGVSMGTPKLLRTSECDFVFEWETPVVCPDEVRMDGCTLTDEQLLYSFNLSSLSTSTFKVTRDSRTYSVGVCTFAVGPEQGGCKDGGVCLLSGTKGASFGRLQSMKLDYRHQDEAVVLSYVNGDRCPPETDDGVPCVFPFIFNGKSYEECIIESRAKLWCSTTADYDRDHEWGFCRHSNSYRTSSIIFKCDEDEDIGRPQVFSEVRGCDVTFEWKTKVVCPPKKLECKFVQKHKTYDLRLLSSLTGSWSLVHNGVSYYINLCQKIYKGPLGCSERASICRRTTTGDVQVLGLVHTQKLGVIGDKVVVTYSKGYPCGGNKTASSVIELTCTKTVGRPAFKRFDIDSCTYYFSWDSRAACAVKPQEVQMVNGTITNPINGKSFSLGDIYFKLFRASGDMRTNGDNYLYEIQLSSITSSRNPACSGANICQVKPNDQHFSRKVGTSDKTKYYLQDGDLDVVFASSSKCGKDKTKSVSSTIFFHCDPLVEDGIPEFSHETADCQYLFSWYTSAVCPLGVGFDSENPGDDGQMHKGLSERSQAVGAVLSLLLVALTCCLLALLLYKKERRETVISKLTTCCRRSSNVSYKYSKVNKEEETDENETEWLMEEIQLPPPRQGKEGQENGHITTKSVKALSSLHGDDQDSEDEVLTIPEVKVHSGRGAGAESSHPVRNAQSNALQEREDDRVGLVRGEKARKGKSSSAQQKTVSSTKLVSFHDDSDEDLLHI
UniProt Q9NWZ3, whole entry, looked up: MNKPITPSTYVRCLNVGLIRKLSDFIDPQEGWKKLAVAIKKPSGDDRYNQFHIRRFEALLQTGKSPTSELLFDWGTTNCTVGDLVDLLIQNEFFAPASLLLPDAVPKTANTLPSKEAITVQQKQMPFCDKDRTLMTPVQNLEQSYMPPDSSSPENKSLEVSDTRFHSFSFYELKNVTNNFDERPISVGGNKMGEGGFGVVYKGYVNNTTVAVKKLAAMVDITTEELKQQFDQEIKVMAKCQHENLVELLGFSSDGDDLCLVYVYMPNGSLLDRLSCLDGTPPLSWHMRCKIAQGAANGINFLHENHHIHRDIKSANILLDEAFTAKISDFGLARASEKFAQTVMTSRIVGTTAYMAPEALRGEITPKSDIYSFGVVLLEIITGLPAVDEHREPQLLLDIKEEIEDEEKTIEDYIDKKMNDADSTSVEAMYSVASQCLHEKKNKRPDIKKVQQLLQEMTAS
UniProt Q5TA45, whole entry, looked up: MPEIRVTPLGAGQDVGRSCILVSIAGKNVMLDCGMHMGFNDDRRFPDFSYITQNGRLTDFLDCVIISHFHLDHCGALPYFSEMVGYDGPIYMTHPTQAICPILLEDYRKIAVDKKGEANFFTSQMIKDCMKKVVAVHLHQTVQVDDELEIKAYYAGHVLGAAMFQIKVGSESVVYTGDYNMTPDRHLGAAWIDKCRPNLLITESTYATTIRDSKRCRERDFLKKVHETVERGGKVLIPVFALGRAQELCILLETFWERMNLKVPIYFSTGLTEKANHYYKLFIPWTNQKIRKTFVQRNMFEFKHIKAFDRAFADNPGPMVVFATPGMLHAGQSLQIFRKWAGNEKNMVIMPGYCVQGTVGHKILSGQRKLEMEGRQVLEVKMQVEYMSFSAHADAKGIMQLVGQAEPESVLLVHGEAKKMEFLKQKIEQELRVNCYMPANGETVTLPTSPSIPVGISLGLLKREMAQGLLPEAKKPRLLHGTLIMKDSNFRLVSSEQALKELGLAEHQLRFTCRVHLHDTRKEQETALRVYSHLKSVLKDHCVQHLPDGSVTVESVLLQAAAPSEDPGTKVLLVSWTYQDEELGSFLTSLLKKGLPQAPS
UniProt Q9NPH2: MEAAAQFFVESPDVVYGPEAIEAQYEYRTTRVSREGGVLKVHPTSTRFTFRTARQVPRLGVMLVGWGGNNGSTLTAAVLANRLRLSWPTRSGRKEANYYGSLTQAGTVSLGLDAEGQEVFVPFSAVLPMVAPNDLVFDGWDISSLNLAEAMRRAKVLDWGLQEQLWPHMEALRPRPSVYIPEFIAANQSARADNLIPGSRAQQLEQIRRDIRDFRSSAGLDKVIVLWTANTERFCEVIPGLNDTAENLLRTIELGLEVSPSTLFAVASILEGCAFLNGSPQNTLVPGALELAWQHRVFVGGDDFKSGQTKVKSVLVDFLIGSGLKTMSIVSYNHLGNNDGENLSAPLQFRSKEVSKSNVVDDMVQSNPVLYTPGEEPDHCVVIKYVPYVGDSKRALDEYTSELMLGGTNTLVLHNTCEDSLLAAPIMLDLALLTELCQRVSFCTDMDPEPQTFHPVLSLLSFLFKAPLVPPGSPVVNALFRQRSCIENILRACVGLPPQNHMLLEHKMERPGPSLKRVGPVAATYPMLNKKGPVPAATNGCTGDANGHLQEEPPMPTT

Tests used:
Assay in all cases: log2 fold change, soluble protein after heating vs DMSO (PISA); higher = thermal stabilisation; K562 cells, 10 uM, 30 min; active = over 0.2 and 3.5 SD of the protein, either way, in both replicates (recomputed)
[1] = compound: NC(=O)Nc1cc(-c2cccc(F)c2)sc1C(=O)N[C@H]1CCCNC1
Summary of the method: (§1)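 Soluble protein was defined as the supernatant after 21,000xg for 90 min. It came from K562 cells at 2×10^6 cells/mL given 10 μM compound for 30 min, heated in aliquots for 3 min across 48°C-58°C, pooled, and extracted in PBS with 0.5% NP-40 at 4°C, and was quantified by TMTpro 16plex LC-MS/MS with equalised channel sums. Thermal stability against control samples, from duplicates, is reported as log2 fold change.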

[2] = compound: NC(=O)c1cnc(N[C@@H]2CCCC[C@@H]2N)nc1Nc1cccc(-n2nccn2)c1
Summary of the method: as §1

[3] = compound: NC1(c2ccc(-c3nc4ccn5c(=O)[nH]nc5c4cc3-c3ccccc3)cc2)CCC1
Summary of the method: as §1

[4] = compound: NCC(=O)Nc1ccc(-n2nc(C(F)(F)F)cc2-c2ccc3c(ccc4ccccc43)c2)cc1
Summary of the method: as §1

[5] = compound: Nc1ccccc1NC(=O)c1ccc(CNC(=O)OCc2cccnc2)cc1 [entinostat]
Summary of the method: as §1

[6] = compound: O=C(CCCCCCC(=O)Nc1ccccc1)NO [vorinostat]
Summary of the method: as §1

[7] = compound: O=C(CCCCCCNC(=O)c1cnc(N(c2ccccc2)c2ccccc2Cl)nc1)NO [citarinostat]
Summary of the method: as §1

[8] = compound: O=C(O)c1ccc2c(c1)nc(Nc1cccc(Cl)c1)c1ccncc12 [silmitasertib]
Summary of the method: as §1

[9] = compound: O=C1NC(=O)C(c2cnc3ccccn23)=C1c1cn2c3c(cc(F)cc13)CN(C(=O)N1CCCCC1)CC2
Summary of the method: as §1

[10] = compound: c1cc(OCCN2CCCCC2)cc(-c2n[nH]c3ccc(-c4nnc[nH]4)cc23)c1
Summary of the method: as §1

Measured: log2 fold change

IKZF1 (UniProt Q13422)
inactive: [1] 0.164 | [2] -0.084 | [3] 0.21 | [4] -0.03 | [5] 0.064 | [6] 0.003 | [7] 0.019 | [8] -0.202 | [9] 0.004 | [10] -0.061

IK (UniProt Q13123)
inactive: [1] -0.016 | [2] 0.119 | [3] 0.06 | [4] -0.08 | [5] 0.008 | [6] 0.026 | [7] -0.235 | [8] 0.132 | [9] 0.017 | [10] -0.078

IST1 isoform 5 (UniProt P53990)
inactive: [1] 0.006 | [2] -0.107 | [3] 0.109 | [4] -0.06 | [5] 0.053 | [6] -0.036 | [7] 0.042 | [8] 0.007 | [9] -0.023 | [10] -0.054

IFNGR1 (UniProt P15260)
inactive: [1] -0.116 | [2] -0.068 | [3] 0.27 | [4] 0.051 | [5] -0.123 | [6] 0.058 | [7] 0.014 | [8] 0.055 | [9] -0.118 | [10] -0.086

INTS10 (UniProt Q9NVR2)
inactive: [1] 0.029 | [2] -0.054 | [3] -0.167 | [4] -0.063 | [5] 0.057 | [6] 0.121 | [7] 0.097 | [8] -0.035 | [9] -0.064 | [10] -0.122

INTS3 (UniProt Q68E01)
inactive: [1] -0.054 | [2] -0.099 | [3] -0.173 | [4] -0.07 | [5] 0.021 | [6] 0.02 | [7] 0.096 | [8] 0.123 | [9] 0.082 | [10] -0.11

IRF2BP2 (UniProt Q7Z5L9)
inactive: [1] 0.057 | [2] 0.012 | [3] -0.025 | [4] 0.063 | [5] -0.028 | [6] 0.002 | [7] 0.033 | [8] -0.002 | [9] -0.012 | [10] 0.009

IDH3A (UniProt P50213)
inactive: [1] 0 | [2] -0.033 | [3] -0.062 | [4] -0.005 | [5] -0.025 | [6] -0.029 | [7] 0.023 | [8] -0.034 | [9] -0.021 | [10] 0.011

INPP4A (UniProt Q96PE3)
inactive: [1] 0.017 | [2] -0.009 | [3] 0.021 | [4] -0.057 | [5] -0.003 | [6] -0.012 | [7] 0.001 | [8] 0.055 | [9] -0.134 | [10] 0.012

IDH2 (UniProt P48735)
inactive: [1] -0.085 | [2] 0.004 | [3] -0.029 | [4] 0 | [5] 0.014 | [6] -0.007 | [7] 0.021 | [8] 0.008 | [9] -0.033 | [10] -0.002

INPP5B (UniProt P32019)
inactive: [1] 0.106 | [2] -0.066 | [3] -0.003 | [4] -0.108 | [5] 0 | [6] 0.128 | [7] -0.016 | [8] 0.167 | [9] 0.118 | [10] 0.014

IGFBP2 (UniProt P18065)
inactive: [1] 0.026 | [2] -0.043 | [3] -0.242 | [4] -0.037 | [5] 0.04 | [6] 0.351 | [7] -0.068 | [8] 0.267 | [9] -0.143 | [10] 0.064

Reprinted from the listing (2 entries):
INPP4A (UniProt Q96PE3)
inactive: [1] 0.017 | [2] -0.009 | [3] 0.021 | [4] -0.057 | [5] -0.003 | [6] -0.012 | [7] 0.001 | [8] 0.055 | [9] -0.134 | [10] 0.012

IDH2 (UniProt P48735)
inactive: [1] -0.085 | [2] 0.004 | [3] -0.029 | [4] 0 | [5] 0.014 | [6] -0.007 | [7] 0.021 | [8] 0.008 | [9] -0.033 | [10] -0.002

(list continues)

IRGQ (UniProt Q8WZA9)
inactive: [1] 0.019 | [2] -0.004 | [3] -0.096 | [4] -0.04 | [5] 0.076 | [6] 0 | [7] 0.028 | [8] 0.043 | [9] -0.007 | [10] -0.006

ITGAV (UniProt P06756)
inactive: [1] 0 | [2] 0.024 | [3] -0.003 | [4] 0.011 | [5] -0.017 | [6] 0.006 | [7] 0.003 | [8] 0.018 | [9] -0.005 | [10] -0.081

IFRD2 isoform 2 (UniProt Q12894)
inactive: [1] -0.044 | [2] -0.279 | [3] 0.003 | [4] 0.11 | [5] -0.2 | [6] -0.244 | [7] -0.028 | [8] 0.276 | [9] -0.008 | [10] 0.046

INTS14 (UniProt Q96SY0)
inactive: [1] -0.01 | [2] -0.06 | [3] -0.132 | [4] -0.043 | [5] 0.059 | [6] 0.066 | [7] 0.062 | [8] 0.017 | [9] -0.045 | [10] -0.024

ILKAP (UniProt Q9H0C8)
inactive: [1] 0.015 | [2] -0.052 | [3] -0.224 | [4] -0.164 | [5] 0.038 | [6] 0.06 | [7] 0.123 | [8] 0.004 | [9] -0.144 | [10] -0.003

IDI1 isoform 2 (UniProt Q13907)
inactive: [1] -0.062 | [2] 0.01 | [3] -0.038 | [4] 0.024 | [5] -0.03 | [6] 0.008 | [7] -0.017 | [8] 0.078 | [9] -0.066 | [10] 0.035

ILK (UniProt Q13418)
inactive: [1] -0.236 | [2] -0.125 | [3] -0.07 | [4] -0.095 | [5] -0.149 | [6] 0.083 | [7] -0.006 | [8] -0.003 | [9] -0.036 | [10] -0.048

IGF2R (UniProt P11717)
active: [3] -0.546
inactive: [1] -0.032 | [2] 0.03 | [4] 0.006 | [5] -0.008 | [6] 0 | [7] 0.07 | [8] 0.021 | [9] -0.063 | [10] -0.184

IRAK4 (UniProt Q9NWZ3)
active: [1] 0.349 | [3] -0.281
inactive: [2] -0.088 | [4] -0.008 | [5] 0.053 | [6] 0.05 | [7] 0.002 | [8] 0.027 | [9] -0.024 | [10] -0.019

IGFBP4 (UniProt P22692)
inactive: [1] -0.019 | [2] 0.032 | [3] -0.011 | [4] -0.02 | [5] 0.022 | [6] -0.017 | [7] -0.124 | [8] 0.119 | [9] 0.044 | [10] 0.15

ITPKA (UniProt P23677)
inactive: [1] -0.183 | [2] 0.025 | [3] -0.27 | [4] -0.057 | [5] 0.097 | [6] -0.046 | [7] 0.175 | [8] -0.649 | [9] 0.089 | [10] -0.032

IDH3B (UniProt O43837)
inactive: [1] -0.097 | [2] -0.006 | [3] -0.05 | [4] 0.007 | [5] -0.006 | [6] -0.018 | [7] 0.023 | [8] -0.032 | [9] -0.082 | [10] 0.014

IQGAP2 (UniProt Q13576)
inactive: [1] -0.022 | [2] 0.005 | [3] -0.118 | [4] -0.171 | [5] 0.084 | [6] 0.166 | [7] 0.094 | [8] 0.012 | [9] 0.017 | [10] -0.029

INTS11 (UniProt Q5TA45)
inactive: [1] 0.024 | [2] 0.001 | [3] -0.046 | [4] -0.002 | [5] 0.024 | [6] -0.056 | [7] 0.06 | [8] 0.001 | [9] -0.107 | [10] 0

INPP1 (UniProt P49441)
inactive: [1] -0.11 | [2] -0.035 | [3] -0.108 | [4] -0.036 | [5] -0.089 | [6] -0.066 | [7] 0.024 | [8] -0.042 | [9] 0.023 | [10] -0.039

ITCH (UniProt Q96J02)
inactive: [1] -0.025 | [2] -0.126 | [3] -0.104 | [4] 0.05 | [5] 0.039 | [6] 0.078 | [7] 0.018 | [8] 0.017 | [9] -0.032 | [10] -0.183

ISYNA1 (UniProt Q9NPH2)
inactive: [1] -0.031 | [2] 0.04 | [3] 0.014 | [4] 0.034 | [5] 0.001 | [6] -0.022 | [7] 0.161 | [8] -0.017 | [9] -0.032 | [10] 0.064
